From PubChem BioAssay AID743255 (National Center for Advancing Translational Sciences (NCATS), 2014)
Out of some 390,000 compounds screened, about 910 (0.23%) were called active. Inconclusive results, whose numbers are uncertain, are shown with a selection of clear calls. The call rests on the fitted dose curve; in most records, active means well fitted inhibition curve with a large enough effect; inconclusive means small, poorly fitted or top-dose-only effect; inactive means no such curve, though single readings can be large or run the other way. A potency beside an inconclusive call is a rough fit, not a confirmed value.

Amino acid sequences for entries named in this document (tags omitted). A change or cut given only in a name is not applied to a line headed by its entry.
UniProt O94782: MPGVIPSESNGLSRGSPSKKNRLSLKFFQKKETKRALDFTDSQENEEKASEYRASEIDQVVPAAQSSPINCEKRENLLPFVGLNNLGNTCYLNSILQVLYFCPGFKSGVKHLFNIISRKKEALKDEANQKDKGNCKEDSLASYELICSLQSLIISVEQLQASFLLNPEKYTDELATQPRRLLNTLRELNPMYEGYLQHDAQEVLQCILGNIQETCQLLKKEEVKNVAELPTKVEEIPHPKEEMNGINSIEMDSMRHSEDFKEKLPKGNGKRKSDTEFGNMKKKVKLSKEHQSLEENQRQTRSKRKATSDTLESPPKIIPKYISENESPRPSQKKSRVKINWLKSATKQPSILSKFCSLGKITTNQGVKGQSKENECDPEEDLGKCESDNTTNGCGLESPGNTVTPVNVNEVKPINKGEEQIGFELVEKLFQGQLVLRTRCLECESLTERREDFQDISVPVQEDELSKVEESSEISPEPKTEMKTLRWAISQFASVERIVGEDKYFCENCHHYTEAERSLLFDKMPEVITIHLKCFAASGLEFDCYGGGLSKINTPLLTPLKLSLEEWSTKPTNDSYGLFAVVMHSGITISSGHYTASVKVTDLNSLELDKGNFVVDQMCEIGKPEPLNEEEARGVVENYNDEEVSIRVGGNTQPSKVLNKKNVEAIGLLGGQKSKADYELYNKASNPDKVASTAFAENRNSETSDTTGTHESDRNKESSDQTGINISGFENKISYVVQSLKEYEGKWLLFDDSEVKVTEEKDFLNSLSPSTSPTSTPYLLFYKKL

Molecular target: Ubiquitin carboxyl-terminal hydrolase 1 (Homo sapiens) (UniProt O94782)
Assay: Inhibitors of USP1/UAF1: Primary Screen; further: nearly all actives have a fitted effect of over 60% in size
Settings: recombinant USP1/UAF1, Ub-Rhodamine cleavage fluorescence; activity change, negative = inhibition: at 57.1 µM (top of the series)
Text: Deubiquitinating enzymes (DUBs) are a class of enzymes that can cleave isopeptide bond formed between the C-terminal carboxylate of ubiquitin and a lysine side-chain amino group on the target protein. Among them, ubiquitin specific proteases (USPs) constitute the largest DUB family. Human USPs are emerging as promising targets for pharmacological intervention because of their connection to a number of human diseases, including prostate, colon and breast cancer (1, 2), pediatric acute lymphoblastic leukemia (3), and familial cylindromatosis (4). The advantage of inhibiting USPs lies in the potential specificity of therapeutic intervention that can lead to better efficacy and reduce nonspecific side effects. In a collaboration between the University of Delaware and the NIH Chemical Genomics Center, a high-throughput screen assay was developed to screen for USP1/UAF1 inhibitors. This miniaturized assay has a fluorescent read-out and is used to screen the NIH Molecular Libraries Small Molecule Repository (MLSMR) in order to identify a small molecule that inhibits USP1. NIH Chemical Genomics Center [NCGC] NIH Molecular Libraries Probe Centers Network [MLPCN] MLPCN Grant: DA030552 Assay Submitter (PI): Zhihao Zhuang, University of Delaware 1. Priolo, C., et al. (2006) The isopeptidase USP2a protects human prostate cancer from apoptosis. Cancer Res 66, 8625-8632 2. Popov, N., et al. (2007) The ubiquitin-specific protease USP28 is required for MYC stability. Nat Cell Biol 9, 765-774 3. De Pitta, C., et al. (2005) A leukemia-enriched cDNA microarray platform identifies new transcripts with relevance to the biology of pediatric acute lymphoblastic leukemia. Haematologica 90, 890-898 4. Kovalenko, A., et al. (2003) The tumour suppressor CYLD negatively regulates NF-kappaB signalling by deubiquitination. Nature 424, 801-805
3 microliters of reagents (buffer in columns 3 and 4 as negative control and 1nM USP1/UAF1 complex in columns 1, 2, and 5-48) are dispensed into Greiner black solid bottom 1536-well assay plates. Compounds are then transferred via Kalypsys pin tool equipped with 1536-pin array (10nl slotted pins, V&P Scientific, San Diego, CA). Following an incubation step of 15 min at room temperature, 1ul of Ub-Rho substrate (150nM final concentration) is added to initiate the reaction. The plates are immediately centrifuged at 1000 rpm for 15 seconds, and subsequently transferred to a ViewLux high-throughput CCD imager (PerkinElmer) wherein kinetic measurements of fluorescence are acquired using 480 nm excitation/540 nm emission filter set (6 reads every 60 seconds, see Table 1). All reagents are diluted in an assay buffer consisting of 50mM HEPES (pH 7.8), 0.5mM EDTA, 0.1 mg/ml BSA, 1mM TCEP, and 0.01% Tween-20.
On the % scale 0 is the no-effect control and ±100 the full control effect; potency means the concentration at half of the fitted maximal effect.

Potency, inconclusive:
C[C@@H]1CN([C@@H](C)CO)C(=O)CCCn2nncc2CO[C@H]1CN(C)C(=O)c1cc(-c2ccccc2)on1 0.355 µM [inhibitor, full curve, poor fit], Cc1cccc(CSc2nc(=O)c3c(n2C)NC(=O)CC3c2cccc(O)c2)c1 (centres undefined) 44.7 µM [inhibitor, single point], Cc1ccc(CNC(=O)Cn2ccn(-c3cc(C)cc(C)c3)c(=O)c2=O)cc1 5.62 µM [inhibitor, full curve, poor fit], O=C(CSc1ccc2nnc(CCNS(=O)(=O)c3ccccc3)n2n1)Nc1ccccc1C(F)(F)F 0.1 µM [inhibitor, full curve, poor fit], Fc1ccccc1C1=NC(c2ccc(C(F)(F)F)cc2)=Nc2ccccc2N1 44.7 µM [inhibitor, partial curve, poor fit], CCCCOc1ccc(N(CC(=O)NCc2ccccc2)C(=O)c2csnn2)cc1 50.1 µM [inhibitor, partial curve, poor fit], CCCCN(CC)Cc1ccc(CNS(=O)(=O)c2cc3c(cc2Cl)NC(=O)CO3)o1 0.224 µM [inhibitor, full curve, poor fit], CCOCCCNC(=S)NC1CC2CCC(C1)N2Cc1ccccc1 (centres undefined) 44.7 µM [inhibitor, partial curve, poor fit], COc1ccc(C(=O)Nc2ccccc2C(=O)OCc2cc(=O)n3nc(C4CC4)sc3n2)cc1 4.47 µM [inhibitor, partial curve], N#Cc1ccc(C(=O)N(Cc2ccccc2)c2ccccc2)cc1 39.8 µM [inhibitor, partial curve, poor fit], COc1cccc(-c2cc3nc(-c4ccccc4)cc(N4CCCC(O)C4)n3n2)c1 (centres undefined) 35.5 µM [inhibitor, partial curve], CCc1ccc2occ(CC(=O)N(Cc3ccc(N(C)C)cc3)C3CCS(=O)(=O)C3)c2c1 (centres undefined) 10 µM [inhibitor, partial curve], Cc1cccc(/C=C/C(=O)c2ccc([N+](=O)[O-])o2)c1 35.5 µM [inhibitor, partial curve, poor fit], CCCc1cc(=O)[nH]c(Nc2ccc(O)cc2C)n1 1.12 µM [inhibitor, full curve, poor fit], O=C(/C=C/c1ccnc2ccccc12)c1cccs1 35.5 µM [inhibitor, single point], Nc1ccn([C@@H]2O[C@H](CNCC3=CCOc4ccc(O)cc43)[C@@H](O)[C@H]2O)c(=O)n1 0.282 µM [inhibitor, full curve], O=C(N[C@@H](Cc1ccccc1)C(=O)O)c1cccnc1 8.91 µM [inhibitor, partial curve, poor fit], COc1ccccc1CCC(=O)Nc1ccc2c(c1)CN(CCCn1cccn1)CC2 50.1 µM [inhibitor, partial curve, poor fit], OC1CCN(c2c3c(nc4cc(-c5ccc(Cl)cc5)nn24)CCC3)CC1 39.8 µM [inhibitor, partial curve], O=C(Cn1ncc2c3ccccc3n(Cc3cccc(Cl)c3)c2c1=O)N1CCCCCC1 17.8 µM [inhibitor, partial curve], COc1ccc(O)c(C(=O)c2cnc3c(c2)c(-c2ccc(F)cc2)c(C#N)c(=O)n3C)c1 0.251 µM [inhibitor, full curve, poor fit], CCc1ccc(NC(=O)C2CCN(S(=O)(=O)c3ccc4c(c3)NC(=O)C(C)S4)CC2)cc1 (centres undefined) 44.7 µM [inhibitor, partial curve, poor fit], O=C(NC1CCCCC1)c1ccc2c(c1)N(Cc1cccc(Cl)c1)C(=O)c1ccccc1S2=O (centres undefined) 3.98 µM [inhibitor, single point], S=c1[nH]cc(Oc2ccc(Cl)cc2Cl)c(=S)[nH]1 6.31 µM [inhibitor, single point], Cc1ccnc(SCC(N)=O)n1 2 µM [inhibitor, partial curve], Cc1ccc(C(=O)NN2C(=O)/C(=C/c3cccn3C)SC2=S)cc1 35.5 µM [inhibitor, single point], CC1(C)N=C(c2ccccc2)C(c2ccccc2)=N1 39.8 µM [inhibitor, single point], Cc1cc(C)c2c(-n3cccc3)c(C(=O)NCC(C)c3ccccc3)sc2n1 (centres undefined) 1 µM [inhibitor, full curve, poor fit], COc1ccc(-c2nc3ccccc3s2)cc1NC(C)=O 1.12 µM [inhibitor, partial curve], CSCCC(NS(=O)(=O)c1ccc(C)cc1C)C(=O)Nc1cccnc1 (centres undefined) 7.08 µM [inhibitor, full curve], CC1=NN(c2ccccc2)C(=O)/C1=C\c1ccc(Oc2ccc([N+](=O)[O-])cc2[N+](=O)[O-])cc1 6.31 µM [inhibitor, partial curve, poor fit]

Potency, active:
CC(=O)[C@H]1[C@@H]2C(=O)N(c3cccc(Cl)c3)C(=O)[C@@H]2[C@H]2c3ccccc3C=CN21 10 µM

Activity change, negative = inhibition, inactive:
O=C(NCc1ccccn1)c1nn(-c2ccccc2F)nc1CO -9.95%, CCCCOc1ccc(C(=O)Nc2ccc3c(c2)CCCN3S(=O)(=O)c2ccc(C)cc2)cc1 -10.8%, Cc1cc(C)c2c(CC(=O)NC(C)C)coc2c1 -2.33%, Cc1nc(NCCc2ccccc2)c2oc3ccccc3c2n1 -26.1%, O=C(Nc1ccc(N2CCOCC2)cc1)c1cccc2c(Br)cccc12 -9.8%, CC(=O)N1N=C(c2ccccc2)OC1(C)CC(=O)Nc1ccccc1 (centres undefined) -4.37%, Cc1ccc(C(=O)O)cc1NC(=S)NC(=O)c1ccc(-c2ccc(Cl)cc2)o1 -16.6%
